Test results from US9417245B2, “Porphyrinic compounds for use in flow cytometry” (North Carolina State University, priority 2005, dated 2016).
At least one compound was matched to its structure with a doubt left.

Experiment: Fluorescence spectroscopy (emission bands, fluorescence quantum yield)
Type: physicochemical
Conditions: in toluene at room temperature
Procedure: The fluorescence spectra and fluorescence quantum yields reported herein were collected in toluene at room temperature. Measurements of fluorescence quantum yield (Φf) were carried out using chlorin Zn-11 (Φf=0.065) as a standard.^16

In the case of `CC(=O)c1cc2[nH]c1cc1nc(cc3ccc([nH]3)c(-c3ccc(C)cc3)c3nc(c2-c2c(C)cc(C)cc2C)C=C3)C(C)(C)C1` [Compound 1, 13-Acetyl-17,18-dihydro-10-mesityl-18,18-dimethyl-5-p-tolylporphyrin], the “strong Qy(0,0) / dominant fluorescence band” value is reported as “approximately 668 nm”.
